# According to PubChem BioAssay AID1487 (National Center for Advancing Translational Sciences (NCATS), 2009):
# The list shows a part of the results. These are further read-outs of the screen, such as a control signal, another cell line or another target. No call is given for them. The list favours compounds with an active or inconclusive main result. Words in brackets tell the shape of the fitted curve; partial curves, single points and poor fits give uncertain potencies.
# Test: qHTS Assay for Modulators of Lamin A Splicing
# Details: HeLa LMNA splicing GFP/RFP minigene ratio, 48 h
# Outline: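 S3 HeLa stable clones carrying a lamin A-EGFP splicing minigene plus DsRed2 were seeded at 600 cells/well in Opti-MEM with 2% FBS, pin-dosed and incubated 48 h at 37°C. Acumen cytometry (488 nm) gave the GFP/RFP total-intensity ratio.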
# [1] = measured here: GFP splicing reporter channel
# [2] = measured here: RFP viability control channel
SMILES,AC50 [1],AC50 [2]
CCN(CC)c1ccc(-c2nn3c(-c4ccccc4OC)nnc3s2)cc1,"0.794 µM [rising, full curve, poor fit]","0.891 µM [rising, single point]"
CCCCC(CC)CNC(=O)c1[nH]c(C)c(C(C)=O)c1C (stereo not drawn),–,"12.6 µM [rising, partial curve]"
CCC(=O)Nc1cc(NC(=O)CSc2ncc(-c3ccc(F)cc3)n2Cc2ccco2)ccc1C,"3.98 µM [rising, partial curve]",–
O=C(Nc1cccc([N+](=O)[O-])c1)c1ccc2ccccc2c1O,"3.98 µM [rising, full curve, poor fit]","3.98 µM [rising, full curve, poor fit]"
Oc1ccc(/C=N/Nc2cc(N3CCCC3)nc(N3CCCC3)n2)cc1O,–,"17.8 µM [rising, partial curve]"
COc1ccccc1C(=O)NCc1ccc(-c2nc3ccccc3s2)cc1,"35.5 µM [rising, single point]","35.5 µM [rising, single point]"
O=C(Nc1ccccc1)Nc1ccc(Br)c(Cl)c1,–,"20 µM [rising, partial curve]"
Cc1nc(-n2nc(C)c(Cc3ccccc3Cl)c2C)sc1C(=O)N1CCCCC1C (stereo not drawn),"2.24 µM [rising, partial curve, poor fit]",–
CC(C)(C)NC(=O)CSc1nc(-c2ccccc2)c(-c2ccccc2)[nH]1,–,"35.5 µM [rising, single point]"
Nc1cnn(C2OC(CO)C(O)C2O)c(=O)n1 (stereo not drawn),–,"0.0501 µM [rising, full curve]"
CCOc1ccc2nc(SC(CC)C(=O)Nc3cc(C)on3)sc2c1 (stereo not drawn),"35.5 µM [rising, single point]","35.5 µM [rising, single point]"
Cc1ccc(-c2nc(CSCC(=O)Nc3cc(C)on3)c(C)o2)cc1,–,"35.5 µM [rising, single point]"
C[C@H](NC(=O)N1CCc2nc(COc3ccccc3)c3c(c2C1)CO[C@@H](C)C3)c1ccccc1,"0.0794 µM [falling, partial curve]","0.562 µM [falling, single point]"
S=C(Nc1ccc(Cl)cc1Cl)N1CCOCC1,"14.1 µM [rising, single point]","14.1 µM [rising, partial curve]"
CCc1ccccc1N(CC)C(=O)c1cn(CC)c(=O)c2cc(OC)c(OC)cc12,–,"1.78 µM [rising, single point]"
CC(Sc1nnc(-c2ccc(Cl)cc2Cl)n1Cc1ccccc1)C(=O)Nc1nccs1 (stereo not drawn),–,"7.94 µM [falling, partial curve, poor fit]"
CCCn1c(C)cc(C(=O)CSc2nc3nc(C)cc(C)n3n2)c1C,"25.1 µM [rising, single point]","25.1 µM [rising, single point]"
CCOC(=O)C1(CCCc2ccccc2)CCN(C(=O)C(C)n2cncn2)CC1 (stereo not drawn),"0.708 µM [falling, partial curve]","0.141 µM [falling, partial curve]"
O=C(O)CC(NC(=O)C1CCCCC1)c1cc([N+](=O)[O-])ccc1Cl (stereo not drawn),–,"1.26 µM [falling, full curve, poor fit]"
COc1ccc(N=C2SC(C(=O)Nc3ccc(F)cc3)CC(=O)N2C)cc1 (stereo not drawn),–,"0.00316 µM [falling, full curve, poor fit]"
CCOC(=O)c1ccc(NC(=O)C(C)Sc2nc(O)c(-c3ccccc3)c(=O)[nH]2)cc1 (stereo not drawn),"0.02 µM [falling, full curve, poor fit]","0.01 µM [falling, full curve, poor fit]"
Cc1ccc(-n2nc(C)c(C3C(C#N)=C(N)OC4=C3C(=O)CC(C)(C)C4)c2Cl)cc1 (stereo not drawn),–,"35.5 µM [rising, single point]"
Cc1cc(C)cc(NC(=O)/C=C/c2ccc([N+](=O)[O-])s2)c1,–,"35.5 µM [falling, single point]"
COc1ccc2c(c1)-c1c(ssc1=S)C(C)(C)N2S(=O)(=O)c1ccc(C)cc1,"10 µM [rising, partial curve, poor fit]","8.91 µM [rising, partial curve]"
COc1ccccc1Nc1nn2c(=O)c3ccc(C(=O)NCc4cccs4)cc3nc2s1,"3.55 µM [falling, partial curve]","7.08 µM [falling, full curve]"
COCCNC(=O)NC1(C(F)(F)F)Oc2ccc(Cl)cc2O1 (stereo not drawn),–,"35.5 µM [rising, single point]"
COc1ccc(N2CCN(C(=O)c3ccc(C)c(NC(=O)c4nsc5ccccc45)c3)CC2)cc1,"35.5 µM [rising, single point]","35.5 µM [rising, single point]"

SMILES,AC50 [1],AC50 [2]
COc1ccc(-n2nnnc2SCC(=O)N2C(C)CCCC2C)c(OC)c1 (stereo not drawn),"20 µM [rising, single point]","22.4 µM [rising, single point]"
C[C@@](Cc1ccc(O)c(O)c1)(NN)C(=O)O,–,"12.6 µM [rising, single point]"
Cc1ccc(C)c(NC(=O)c2ccccc2O)c1,–,"17.8 µM [rising, partial curve, poor fit]"
Cc1nnc(SCc2ccc(C(=O)c3ccc(Cl)cc3)o2)n1-c1ccccc1,–,"12.6 µM [rising, single point]"
Cc1ccc(NC(=O)c2ccc(OCC3CCCO3)cc2)cc1 (stereo not drawn),–,"15.8 µM [rising, single point]"
Cc1ncc([N+](=O)[O-])n1Cc1cccc2ccccc12,"10 µM [rising, single point]",–
C/C(=N\NC(=O)c1nn(C)cc1Br)c1ccc(NC(=O)c2ccncc2)cc1,"12.6 µM [rising, partial curve]","8.91 µM [rising, partial curve, poor fit]"
Cc1ccc(S(=O)(=O)c2cnc(SCC(=O)Nc3cc(C)cc(C)c3)nc2N)cc1,"0.0355 µM [falling, full curve]","0.0224 µM [falling, full curve, poor fit]"
CCCNC(=O)c1ccc2c(c1)C1C3CCC(C3)C1C(c1ccccc1)N2 (stereo not drawn),"12.6 µM [rising, single point]","22.4 µM [rising, single point]"
Cn1c(=O)[nH]c(=O)c2[nH]c(N(Cc3ccccc3)Cc3ccccc3)nc21,"6.31 µM [rising, partial curve]",–
COc1ccc2nc(SCC(=O)Nc3ccc4c(c3)CCC4)[nH]c2c1,"12.6 µM [rising, partial curve]",–
Cc1cccc2nc(-c3ccccc3)nc(N3CCC(O)(c4ccc(Cl)cc4)CC3)c12,"20 µM [rising, single point]","25.1 µM [rising, partial curve]"
COc1ccc(Nc2ncc3nc(-c4cccs4)c(=O)n(Cc4cccc(OC)c4)c3n2)cc1,–,"15.8 µM [falling, partial curve]"
O=C(Nc1cc(Cl)cc(Cl)c1)c1ccc(F)c(S(=O)(=O)NC2CCCC2)c1,"3.16 µM [rising, single point]",–
N#Cc1nc(-c2ccco2)oc1N1CCN(Cc2ccccc2)CC1,"15.8 µM [rising, single point]","22.4 µM [rising, single point]"
CN(C)S(=O)(=O)c1cccc(NC(=S)NC(=O)C2CCCCC2)c1,"12.6 µM [rising, partial curve]","22.4 µM [rising, partial curve]"
CCOC(=O)c1c(C)sc2c1N(C(=O)CCl)c1cc(Cl)ccc1S2,–,"11.2 µM [falling, partial curve]"
CCOC(=O)N1CCC(NC(=O)C2CCN(c3ccc(N4CCOCC4)nn3)CC2)CC1,–,"0.398 µM [falling, full curve, poor fit]"
CCCCN1C(=O)Cc2c1nc(N)c1c(N)nc(N(CCC)CCC)c(C#N)c21,–,"20 µM [rising, single point]"
O=C(c1ccc(F)cc1)N1CCN(c2ccc([N+](=O)[O-])c(N3CCCCC3)c2)CC1,"20 µM [rising, single point]","25.1 µM [rising, single point]"
O=C(NC1CCCCC1)C(c1cccnc1)N(C(=O)CCl)c1cccc(Cl)c1 (stereo not drawn),"17.8 µM [falling, single point]","3.16 µM [falling, single point]"
COc1ccc(NCC(=O)Nc2ccc(Br)cc2F)c(OC)c1,"10 µM [rising, partial curve, poor fit]",–
COc1ccc(Oc2coc3cc(OCC(=O)N4CCCCC4)ccc3c2=O)cc1,"17.8 µM [rising, partial curve, poor fit]","22.4 µM [rising, single point]"
CC1=CC(C)(C)Nc2ccc(OC(=O)CN3C(=O)c4cccc5cccc(c45)C3=O)cc21,"22.4 µM [falling, single point]","35.5 µM [falling, single point]"
Nc1nc(-c2ccccc2)cc(-c2ccccc2O)n1,"22.4 µM [falling, single point]","35.5 µM [falling, single point]"
CCCCCn1cnc2sc(CC)cc2c1=O,"1.12 µM [rising, full curve, poor fit]",–
Cn1nc(-c2ccc(OCC(=O)Nc3cccnc3)cc2)c2ccccc2c1=O,–,"15.8 µM [rising, single point]"

# Two of the compounds above, bar-delimited:
SMILES | AC50 [1] | AC50 [2]
Cc1nnc(SCc2ccc(C(=O)c3ccc(Cl)cc3)o2)n1-c1ccccc1 | – | 12.6 µM [rising, single point]
Cc1ccc(NC(=O)c2ccc(OCC3CCCO3)cc2)cc1 (stereo not drawn) | – | 15.8 µM [rising, single point]
